Measurements reported in PubChem BioAssay AID1671190 (National Center for Advancing Translational Sciences (NCATS), 2021).
About 6,100 (1.1%) of roughly 580,000 compounds were called active. This list was built around the results that the source calls inconclusive (neither active nor inactive); the mix of calls is not that of the screen. Calls follow the shape of the dose curve; as a rule, active = well fitted inhibition curve with a large enough effect; inconclusive = small, poorly fitted or top-dose-only effect, or another doubt; inactive = no such curve, though single readings can be large or run the other way. Potencies beside an inconclusive call are fits to weak or partial responses and may not hold up.

By UniProt entry, the sequences of proteins in these tests, tags left out.
UniProt P18054, whole entry, looked up: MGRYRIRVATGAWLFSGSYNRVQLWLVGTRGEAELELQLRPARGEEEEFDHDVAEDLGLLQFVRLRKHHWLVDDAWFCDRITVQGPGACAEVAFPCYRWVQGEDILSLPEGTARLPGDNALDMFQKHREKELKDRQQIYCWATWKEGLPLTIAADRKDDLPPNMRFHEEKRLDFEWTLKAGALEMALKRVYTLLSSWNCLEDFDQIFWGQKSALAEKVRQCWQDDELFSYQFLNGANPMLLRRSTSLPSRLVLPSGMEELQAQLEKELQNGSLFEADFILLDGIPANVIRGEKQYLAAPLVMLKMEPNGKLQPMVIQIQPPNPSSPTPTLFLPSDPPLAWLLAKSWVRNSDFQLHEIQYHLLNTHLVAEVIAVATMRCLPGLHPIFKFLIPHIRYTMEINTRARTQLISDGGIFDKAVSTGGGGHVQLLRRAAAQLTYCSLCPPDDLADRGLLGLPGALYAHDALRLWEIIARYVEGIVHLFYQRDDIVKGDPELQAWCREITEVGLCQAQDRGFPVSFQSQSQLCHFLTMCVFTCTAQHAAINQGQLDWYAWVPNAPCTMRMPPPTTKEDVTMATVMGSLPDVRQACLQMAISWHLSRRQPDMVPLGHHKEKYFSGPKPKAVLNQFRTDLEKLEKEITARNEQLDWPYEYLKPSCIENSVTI

Molecular target: Polyunsaturated fatty acid lipoxygenase ALOX12 (Homo sapiens) (UniProt P18054)
Test: Primary qHTS assay for inhibitors of human arachidonate 12S-lipoxygenase (ALOX12): Round 2
Details: purified 12hLO, xylenol orange hydroperoxide absorbance; activity change, negative = inhibition: at 108 µM (top of the series) unless noted
Procedure, shortened: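 Hydroperoxide product was detected by ferrous iron/xylenol orange as the 573 to 405 nm absorbance ratio. Arachidonic acid at 40 uM (final) was turned over for 30 min at room temperature by 150 nM human 12hLO, pH 7.0 Hepes buffer, after 15 min compound preincubation.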
% is scaled to controls: 0 for no effect and ±100 for the full control effect; potency is read from the fitted curve at half-maximal effect.

Row | SMILES | Potency | activity change, negative = inhibition
1 | Cc1ccc(C(=O)NC(=S)Nc2ccc(-c3ccc(CO)o3)cc2)cc1 | inconclusive: 25.1 µM [inhibitor, partial curve, poor fit] | 
2 | Cc1cc(C(=O)Cn2c(Cl)nc3c2c(=O)n(C)c(=O)n3C)c(C)n1Cc1ccc(F)cc1 | inconclusive: 31.6 µM [inhibitor, single point] | 
3 | COc1ccc(C(=O)NC2CCN(C(=O)c3cc4c(=O)[nH]c(C)cn4n3)CC2)cc1F |  | inactive: -5.9%
4 | Cc1ccc(NC(=O)C(OC(=O)c2ccc(NC(N)=O)cc2)c2ccccc2)cc1Cl (stereo not given) |  | inactive: -26.7%
5 | O=C1NC(=S)SC1=Cc1ccccn1 | inconclusive: 79.4 µM [inhibitor, single point] | 
6 | O=C(c1ccc(Oc2ccccc2)cc1)N1CCOCC12CCN(Cc1ccccc1)CC2 | inconclusive: 20 µM [inhibitor, partial curve] | 
7 | COCCNC(=S)N/N=C(/C)c1ccc(C(C)(C)C)cc1 | inconclusive: 44.7 µM [inhibitor, partial curve, poor fit] | 
8 | Oc1ccc(C2CNCCc3c2cc(O)c(O)c3Cl)cc1 (stereo not given) | inconclusive: 0.485 µM [inhibitor, full curve] | 
9 | Cc1ccccc1NC(=O)Cn1c(=O)n(CCCCC(=O)NCc2ccccc2Cl)c(=O)c2ccccc21 | inconclusive: 56.2 µM [inhibitor, partial curve, poor fit] | 
10 | COc1ccc(/C=C(/C#N)C(=O)Nc2cccc3ncccc23)cc1OC | active: 15.8 µM | 
11 | COC(=O)CNC(=O)Cc1ccc(NC(=O)C2=COCC2)cc1 |  | inactive: 0.0954%
12 | Cc1cc(=O)oc2cc(OCC(=O)NCCN(C)C)c(Cl)cc12 | inconclusive: 158 µM [inhibitor, partial curve, poor fit] | 
13 | Cc1ccc(NC(=S)N(Cc2cccc(Br)c2)CC2CCC(C(=O)O)CC2)cc1 (stereo not given) | inconclusive: 44.7 µM [inhibitor, partial curve] | 
14 | O=S(=O)(NCC1(c2ccccc2)CCC1)c1cccc(F)c1 |  | inactive: -6.72%
15 | COC(=O)C1=C(C)N(Cc2cccc(C(F)(F)F)c2)C(=NCc2cc(OC)c(OC)c(OC)c2)NC1c1cccc(Cl)c1 (stereo not given) | inconclusive: 56.2 µM [inhibitor, partial curve, poor fit] | 
16 | Cn1nc(C(F)(F)F)c(C#N)c1N1CCN(c2ccccn2)CC1 |  | inactive: -2.63%
17 | COc1ccccc1-c1coc2cc(O)ccc2c1=O | inconclusive: 89.1 µM [inhibitor, single point] | 
18 | O=C(NCCCO)C(=O)NCC1OCCCN1S(=O)(=O)c1cccs1 (stereo not given) |  | inactive: 0%
19 | CCOC(=O)c1ccc(N2C(=O)c3[nH]nc(-c4ccccc4)c3C2c2cccs2)cc1 (stereo not given) |  | inactive: -6.09%
20 | O=C(c1ccccc1Cc1ccccc1)N1CCN(S(=O)(=O)c2ccccc2F)CC1 | inconclusive: 100 µM [inhibitor, single point] | 
21 | CC1CC(C)(C)CC2(C1)NC(=S)N(c1ccccc1)N2 (stereo not given) | inconclusive: 28.2 µM [inhibitor, full curve, poor fit] | 
22 | O=C(NCCCN1CCOCC1)c1ccc(-n2nc(C(F)(F)F)cc2-c2cccs2)cc1 | inconclusive: 112 µM [inhibitor, single point] | 

Row | SMILES | Potency | activity change, negative = inhibition
23 | CCOc1ccc2[nH]c(=S)[nH]c2c1 | inconclusive: 44.7 µM [inhibitor, single point] | 
24 | O=C(NCc1ccc(F)c(F)c1)c1cnc(N2CCN(CCc3ccccc3)C2=O)o1 | inconclusive: 2.24 µM [inhibitor, full curve, poor fit] | 
25 | COc1ccc(-c2cc(CNS(=O)(=O)c3cc(OC)ccc3OC)on2)cc1 | inconclusive: 79.4 µM [inhibitor, single point] | 
26 | CC1CCCCN1CC(=O)Nc1ccc(N2CCCCCC2)cc1 (stereo not given) | inconclusive: 4.47 µM [inhibitor, full curve] | 
27 | CN(C)CCN(CC(=O)OC(C)(C)C)C(=O)/C=C/c1ccccc1F | inconclusive: 100 µM [inhibitor, single point] | 
28 | Cc1ccc(-n2nnnc2C(C)(C)N2CCOCC2)cc1 | inconclusive: 100 µM [inhibitor, single point] | 
29 | COc1ccc(NC(=O)N2CCC(CO)(CC3CCCCO3)CC2)c(OC)c1 (stereo not given) | inconclusive: 28.2 µM [inhibitor, single point] | 
30 | Cc1ccc(-c2csc(Nc3ccccc3)n2)cc1C | inconclusive: 28.2 µM [inhibitor, partial curve, poor fit] | 
31 | O=C(NCC1CCCO1)c1cccc(S(=O)(=O)N(Cc2ccccc2)c2ccccc2)c1 (stereo not given) | inconclusive: 100 µM [inhibitor, single point] | 
32 | Oc1c(C(Nc2cccc(C(F)(F)F)c2)c2cccnc2)ccc2cccnc12 (stereo not given) | inconclusive: 50.1 µM [inhibitor, partial curve, poor fit] | 
33 | COC(=O)c1ccc(CNC(=O)c2nccnc2N)cc1 |  | inactive: -0.655%
34 | Clc1ccccc1C1(c2ccnc(NCCc3cccnc3)n2)CCNCC1 | active: 20 µM | 
35 | COc1ccc(CN2C(=O)CO[C@H]3CN(S(=O)(=O)c4ccccc4)C[C@H]32)cc1 | inconclusive: 22.4 µM [inhibitor, partial curve, poor fit] | 
36 | COC(=O)C(=O)C/C(=N/Nc1ncnc2ccccc12)c1ccc(Cl)cc1 |  | inactive: 12.8%
37 | CCOC(=S)SCc1cn2cccc(C)c2n1 |  | inactive: -2.67%
38 | CCN1C(=O)c2ccccc2Sc2ccc(NC(=O)Nc3ccc(Br)c(C)c3)cc21 |  | inactive: -19.8%
39 | NC(=O)[C@H]1C[C@@H](O)[C@H](O)[C@H]2[C@@H]1SC(=Nc1ccc(Cl)cc1)N2Cc1ccc(F)cc1 | inconclusive: 35.5 µM [inhibitor, partial curve] | 
40 | COc1ccc(S(=O)(=O)N(C)C(C)CCc2ccco2)cc1 (stereo not given) | inconclusive: 12.6 µM [inhibitor, partial curve, poor fit] | 
41 | COc1cc(Nc2nc(N3CCN(c4ccccc4)CC3)c3nccnc3n2)cc(OC)c1OC | inconclusive: 39.8 µM [inhibitor, single point] | 
42 | CC1CCCN(C2CCN(Cc3cccc(Cl)c3)CC2)C1 (stereo not given) |  | inactive: -51.8%
43 | COc1ccccc1C(O)(C(=O)NNc1cccc(C)c1)c1ccccc1OC | inconclusive: 50.1 µM [inhibitor, partial curve, poor fit] | 
44 | COc1c(CC=C(C)C)cc(C2CC(=O)c3c(O)cc(O)cc3O2)cc1CC=C(C)C (stereo not given) | inconclusive: 3.98 µM [inhibitor, full curve, poor fit] | 

Single values from the entries so far:
Potency with O=C(c1ccccc1Cc1ccccc1)N1CCN(S(=O)(=O)c2ccccc2F)CC1 is entered as inconclusive: 100 µM [inhibitor, single point]
Potency with Cc1ccc(C(=O)NC(=S)Nc2ccc(-c3ccc(CO)o3)cc2)cc1 is entered as inconclusive: 25.1 µM [inhibitor, partial curve, poor fit]
Potency with COc1ccc(NC(=O)N2CCC(CO)(CC3CCCCO3)CC2)c(OC)c1 (stereo not given) is entered as inconclusive: 28.2 µM [inhibitor, single point]

(next part)

Row | SMILES | Potency | activity change, negative = inhibition
45 | CCc1ccc(-c2nc(CN3CCCC(C(=O)NCCc4ccc(OC)c(OC)c4)C3)c(C)o2)cc1 (stereo not given) | inconclusive: 112 µM [inhibitor, partial curve, poor fit] | 
46 | CC(=O)NCC1COc2ccccc2O1 (stereo not given) |  | inactive: -18.8%
47 | c1ccc(CN=C2NN=C(c3ccccc3)CS2)cc1 | inconclusive: 100 µM [inhibitor, partial curve, poor fit] | 
48 | COc1ccccc1NS(=O)(=O)c1cc(NC(=O)c2ccccc2[N+](=O)[O-])ccc1N1CCOCC1 | inconclusive: 100 µM [inhibitor, partial curve, poor fit] | 
49 | Cc1ccc(-c2ccc(=O)n(CC(=O)NC(C)c3ccccc3)n2)cc1 (stereo not given) | inconclusive: 56.2 µM [inhibitor, partial curve, poor fit] | 
50 | CCOC(=O)c1c(C)[nH]c(C)c1C(=O)COC(=O)c1cccc(S(=O)(=O)NC)c1 | inconclusive: 44.7 µM [inhibitor, partial curve, poor fit] | 
51 | CC(=O)c1cc(CC(=O)O)cs1 | inconclusive: 50.1 µM [inhibitor, partial curve, poor fit] | 
52 | COCc1[nH][nH]c(=O)c1C=Nc1ccc(Cl)cc1 | inconclusive: 35.5 µM [inhibitor, single point] | 
53 | COC(=O)c1ccccc1S(=O)(=O)N1CCC(c2nc3ccccc3o2)CC1 | inconclusive: 44.7 µM [inhibitor, partial curve, poor fit] | 
54 | Cc1c(/C(O)=C2\C(=O)C(=O)N(CCN(C)C)C2c2cccnc2)cnn1-c1ccccc1 (stereo not given) | inconclusive: 3.16 µM [inhibitor, full curve, poor fit] | 
55 | CCN1CCN(c2ccccc2NC(=O)c2ccc(-n3cccn3)cc2)CC1 | inconclusive: 100 µM [inhibitor, partial curve, poor fit] | 
56 | COc1cc(/C=N/O)ccc1OCC(C)C | inconclusive: 89.1 µM [inhibitor, single point] | 
57 | COc1ccccc1CNc1ncnc2ccc(-c3c(C)noc3C)cc12 | inconclusive: 7.94 µM [inhibitor, full curve, poor fit] | 
58 | O=C1C2CCCCN2C(=O)N1CCCCN1CCN(c2ccc(F)cc2)CC1 (stereo not given) | inconclusive: 56.2 µM [inhibitor, partial curve, poor fit] | 
59 | CCc1cccc(C)c1Nc1nc2ccccc2n2cnnc12 | inconclusive: 141 µM [inhibitor, single point] | 
60 | Cc1cc(SCC(=O)NC2(C#N)CCCCCC2)nc2ccccc12 | inconclusive: 50.1 µM [inhibitor, partial curve, poor fit] | 
61 | Cc1ccc(NC(=O)CCC2CCCCC2)cc1 |  | inactive: 3.93%
62 | Cc1ccc2c(C)c(C(=O)Nc3ccc4c(c3)N(C)C(=O)CO4)oc2c1 |  | inactive: -21.4%
63 | Cc1ccc(/C=N/Nc2ccnc3cc(Cl)ccc23)s1 | inconclusive: 50.1 µM [inhibitor, partial curve, poor fit] | 
64 | O=C(COc1ccccc1)NC[C@H]1O[C@H](Cc2cc(CN3CCNCC3)on2)CC[C@@H]1O | inconclusive: 15.8 µM [inhibitor, full curve, poor fit] | 
65 | COCCNC(=O)CSc1cc(C)c2ccccc2n1 |  | inactive: 20.5%

Looked up by compound from the entries so far, 2 records:
Row | SMILES | Potency | activity change, negative = inhibition
48 | COc1ccccc1NS(=O)(=O)c1cc(NC(=O)c2ccccc2[N+](=O)[O-])ccc1N1CCOCC1 | inconclusive: 100 µM [inhibitor, partial curve, poor fit] | 
60 | Cc1cc(SCC(=O)NC2(C#N)CCCCCC2)nc2ccccc12 | inconclusive: 50.1 µM [inhibitor, partial curve, poor fit] | 
